Among the data in PubChem BioAssay AID248 (DTP/NCI, 2004) are survivor count and T/C values, retold here.

The list does not hold the whole screen: it gathers tests that were run many times, whatever their T/C, doses with no T/C, and many T/C values between a quarter and a half above the control. Other doses and runs of a compound stand elsewhere. T/C gives the treated animals as a percentage of the vehicle group. Some entries give survivors of the animals treated and no T/C: the source files T/C as zero there, which appears to mark a toxic dose or a test without result, not a measured value. Some survivor counts are full or nearly so, which does not show that the dose was tolerated: the source hardly ever lists a survival T/C far under the control, and the zero likely stands for such cases as well. Survivors were counted at the toxicity check, usually on the fifth day, unless a day is given; later deaths do not show. Schedules are NCI's codes, read here as Q, the interval in days (D) or hours (H), X, the number of doses. Where survival is the endpoint, the PubChem record calls one and a half times the control and up active, and a quarter to a half above the control has no call in these data; cut-offs in other NCI protocols can differ.

The test has as its system L1210 leukemia ip in BDF1 mice, survival T/C. In words: NCI In Vivo Anticancer Drug Screen. Data for tumor model L1210 Leukemia (intraperitoneal) in B6D2F1 (BDF1) mice. The settings on record: T/C endpoint: mean survival time, higher T/C = longer survival.
[1] abbreviates: dose: 200.0 mg/kg/injection, schedule: Q04DX003 (ip), vehicle: saline with Tween-80.
Where [2] appears, read: dose: 400.0 mg/kg/injection, schedule: Q01DX001 (ip), vehicle: saline with Tween-80.
Where [3] appears, read: dose: 100.0 mg/kg/injection, schedule: Q04DX003 (ip), vehicle: saline.
Setting [4] is: dose: 150.0 mg/kg/injection, schedule: Q04DX003 (ip), vehicle: saline.
Where [5] appears, read: dose: 400.0 mg/kg/injection, schedule: Q04DX003 (ip), vehicle: saline.
[6] abbreviates: dose: 12.5 mg/kg/injection, schedule: Q04DX003 (ip), vehicle: Klucel (hydroxypropylcellulose) (HPC).
Setting [7] is: dose: 25.0 mg/kg/injection, schedule: Q04DX003 (ip), vehicle: Klucel (hydroxypropylcellulose) (HPC).
Where [8] appears, read: dose: 50.0 mg/kg/injection, schedule: Q04DX003 (ip), vehicle: Klucel (hydroxypropylcellulose) (HPC).
Setting [9] is: dose: 300.0 mg/kg/injection, schedule: Q01DX001 (ip), vehicle: saline.
Where [10] appears, read: dose: 400.0 mg/kg/injection, schedule: Q04DX003 (ip), vehicle: saline with Tween-80.

Take `O=C1CC2CCC1C2Cl` (centres undefined): the survivor count is on record as 5 of 6 (dose: 100.0 mg/kg/injection, schedule: Q04DX003 (ip), vehicle: saline with Tween-80); 0 of 6 under setting [1]; 0 of 6 under setting [2].
In the case of `CC1(C)N=C(N)N=C(N)N1c1cccc(Cc2ccccc2)c1`, for the setting “dose: 100.0 mg/kg/injection, schedule: Q01DX001 (ip), vehicle: saline with Tween-80”, the survivor count is reported as 0 of 6.
With `O=C(NC(CSCc1ccccc1)C(=O)Oc1ccc([N+](=O)[O-])cc1)OCc1ccccc1` (centres undefined), the survivor count (dose: 100.0 mg/kg/injection, schedule: Q04DX003 (ip), vehicle: gum acacia) was 6 of 6; the survivor count (dose: 200.0 mg/kg/injection, schedule: Q04DX003 (ip), vehicle: gum acacia) is listed as 6 of 6; the survivor count (dose: 400.0 mg/kg/injection, schedule: Q04DX003 (ip), vehicle: gum acacia) was 6 of 6.
Turning to `CN(C)c1ccc(C(N)=O)cn1`, the survivor count by setting is: (dose: 33.0 mg/kg/injection, schedule: Q01DX009 (ip), vehicle: saline with Tween-80) 5 of 6; (dose: 66.0 mg/kg/injection, schedule: Q01DX009 (ip), vehicle: saline with Tween-80) 6 of 6; under setting [3], 6 of 6; under setting [4], 6 of 6; under setting [5], 6 of 6. Besides, the T/C was 127 % of control (dose: 66.0 mg/kg/injection, schedule: Q04DX003 (ip), vehicle: saline) and 125 % of control under setting [4].
Turning to `Oc1ccccc1C=NCC[N-]CCN=Cc1ccccc1O.[Cu+]`, the survivor count under setting [6] was 3 of 6; the survivor count under setting [7] is 0 of 6; the survivor count under setting [8] was 0 of 6; the survivor count (dose: 100.0 mg/kg/injection, schedule: Q04DX003 (ip), vehicle: Klucel (hydroxypropylcellulose) (HPC)) is 0 of 6; the survivor count (dose: 200.0 mg/kg/injection, schedule: Q04DX003 (ip), vehicle: Klucel (hydroxypropylcellulose) (HPC)) is on record as 0 of 6; the survivor count (dose: 400.0 mg/kg/injection, schedule: Q04DX003 (ip), vehicle: Klucel (hydroxypropylcellulose) (HPC)) is 0 of 6.
`CSC(c1ccccc1F)=[N+]1CCCCC1`: the survivor count (dose: 40.0 mg/kg/injection, schedule: Q01DX001 (ip), vehicle: saline) was 3 of 6; the survivor count (dose: 75.0 mg/kg/injection, schedule: Q01DX001 (ip), vehicle: saline) was 1 of 6; the survivor count (dose: 80.0 mg/kg/injection, schedule: Q01DX001 (ip), vehicle: saline) is on record as 2 of 6; the survivor count (dose: 150.0 mg/kg/injection, schedule: Q01DX001 (ip), vehicle: saline) is 0 of 6; the survivor count under setting [9] is on record as 0 of 6.
For `N=c1c2ncn(Cc3cccc(C(F)(F)F)c3)c2ncn1O`, the survivor count is 3 of 6 (dose: 4.6 mg/kg/injection, schedule: Q01DX009 (ip), vehicle: Klucel (hydroxypropylcellulose) (HPC)); 1 of 6 (dose: 6.25 mg/kg/injection, schedule: Q04DX003 (ip), vehicle: Klucel (hydroxypropylcellulose) (HPC)); 2 of 6 (dose: 7.0 mg/kg/injection, schedule: Q01DX009 (ip), vehicle: Klucel (hydroxypropylcellulose) (HPC)); 0 of 6 (dose: 10.0 mg/kg/injection, schedule: Q01DX009 (ip), vehicle: Klucel (hydroxypropylcellulose) (HPC)); 0 of 6 under setting [6]; 0 of 6 under setting [7]. In addition, under setting [8], the survivor count is 1 of 6.
Turning to `CC(C)(C)NC(=O)NCc1ccco1`, the survivor count (dose: 100.0 mg/kg/injection, schedule: Q01DX009 (ip), vehicle: Klucel (hydroxypropylcellulose) (HPC)) is listed as 3 of 6; the survivor count (dose: 200.0 mg/kg/injection, schedule: Q01DX009 (ip), vehicle: Klucel (hydroxypropylcellulose) (HPC)) is 0 of 6; the survivor count (dose: 400.0 mg/kg/injection, schedule: Q01DX009 (ip), vehicle: Klucel (hydroxypropylcellulose) (HPC)) is given as 0 of 6.
In the case of `Cc1cc(-c2ccc(NS(=O)(=O)c3ccccc3)c(C)c2)ccc1NS(=O)(=O)c1ccccc1`, the survivor count under setting [2] is on record as 6 of 6.
On to `Cc1nccn1C(C)c1ccccc1` (centres undefined), for which the survivor count under setting [3] is on record as 0 of 6; the survivor count (dose: 200.0 mg/kg/injection, schedule: Q04DX003 (ip), vehicle: saline) is on record as 0 of 6; the survivor count under setting [5] is 0 of 6.
Take `CN1CCC(CN2c3ccccc3Sc3ccccc32)CC1`: the survivor count is 3 of 6 (dose: 50.0 mg/kg/injection, schedule: Q01DX009 (ip), vehicle: saline); 4 of 6 (dose: 100.0 mg/kg/injection, schedule: Q01DX009 (ip), vehicle: saline); 5 of 6 under setting [3]; 1 of 6 (dose: 200.0 mg/kg/injection, schedule: Q01DX009 (ip), vehicle: saline); 0 of 6 (dose: 400.0 mg/kg/injection, schedule: Q01DX001 (ip), vehicle: saline).
Take `O=C(O)c1cc(-c2cccs2)c(C(=O)O)s1`: the survivor count (dose: 400.0 mg/kg/injection, schedule: Q04DX003 (ip), vehicle: other) is reported as 3 of 6.
With `O=C(CSc1cc(Cl)ccc1Cl)Nc1ccc(Cl)cc1Cl`, where the note is “dose: 400.0 mg/kg/injection, schedule: Q04DX003 (ip), vehicle: carboxymethylcellulose (CMC)”, the survivor count is 6 of 6.
Turning to `CC(=O)OC1CC(OC2C(O)CC(OC3C(O)CC(OC4CCC5(C)C(CCC6C5CCC5(C)C(C7=CC(=O)OC7)C(O)CC65O)C4)OC3C)OC2C)OC(C)C1OC1OC(CO)C(O)C(O)C1O` (centres undefined), the survivor count (dose: 100.0 mg/kg/injection, schedule: Q01DX001 (ip), vehicle: carboxymethylcellulose (CMC)) is listed as 1 of 6.
As for `O=C(C=C(C(F)(F)F)C(F)(F)F)c1cccc(C(F)(F)F)c1`, the survivor count by setting is: (dose: 50.0 mg/kg/injection, schedule: Q01DX009 (ip), vehicle: saline with Tween-80) 3 of 6; under setting [1], 6 of 6; under setting [10], 0 of 6.
Consider `CCCOP(=O)(N1CC1(C)C)N1CC1(C)C` (centres undefined), for which the survivor count (dose: 400.0 mg/kg/injection, schedule: Q04DX002 (ip), vehicle: saline) is recorded as 3 of 3.
On to `Cc1cc(N)nc2ccccc12`, for which the survivor count by setting is: (dose: 100.0 mg/kg/injection, schedule: Q04DX002 (ip), vehicle: saline with Tween-80) 0 of 3; (dose: 200.0 mg/kg/injection, schedule: Q04DX002 (ip), vehicle: saline with Tween-80) 0 of 3; (dose: 400.0 mg/kg/injection, schedule: Q04DX002 (ip), vehicle: saline with Tween-80) 0 of 3.
Consider `CC1=C(C)CC2C(=O)C=CC(=O)C2C1` (centres undefined), for which the survivor count (dose: 200.0 mg/kg/injection, schedule: Q01DX009 (ip), vehicle: water) is given as 6 of 6; the survivor count (dose: 400.0 mg/kg/injection, schedule: Q01DX009 (ip), vehicle: water) is reported as 1 of 6; the survivor count (dose: 400.0 mg/kg/injection, schedule: Q04DX003 (ip), vehicle: water) is recorded as 3 of 6.
As to `CCOC(=O)C(C(=O)c1ccccc1)c1cc(NS(=O)(=O)c2ccccc2)ccc1O` (centres undefined), the T/C under setting [1] is 133 % of control. Further, the survivor count under setting [10] is given as 6 of 6.
Turning to `C[N+](C)(C)CCN=C(N)N[N+](=O)[O-]`, the survivor count (dose: 400.0 mg/kg/injection, schedule: Q01DX009 (ip), vehicle: saline) is on record as 5 of 6.
Turning to `O=c1c2cccc3cccc(c32)c2nc3ccccc3n12`, the survivor count under setting [10] is given as 3 of 6.
As for `COc1ccc2nc3cc(Cl)ccc3c(Nc3ccc(O)c(CNCCO)c3)c2c1`, the survivor count is given as 1 of 6 (dose: 150.0 mg/kg/injection, schedule: Q01DX001 (ip), vehicle: carboxymethylcellulose (CMC)) and 0 of 6 (dose: 300.0 mg/kg/injection, schedule: Q01DX001 (ip), vehicle: carboxymethylcellulose (CMC)).
On to `Cc1ccc(N=Nc2c(C)nc(N)nc2C)cc1`, for which, under setting [9], the survivor count is recorded as 3 of 6.
